Measured values published in publication PMC12828040.
These are yes or no findings as the source states them, for the method shown. In cells and extracts the contact can be indirect. Some binding calls cover weakened binding; strength is not graded here.

The chains behind the UniProt entries cited, without tags or fusion partners.
UniProt Q13547: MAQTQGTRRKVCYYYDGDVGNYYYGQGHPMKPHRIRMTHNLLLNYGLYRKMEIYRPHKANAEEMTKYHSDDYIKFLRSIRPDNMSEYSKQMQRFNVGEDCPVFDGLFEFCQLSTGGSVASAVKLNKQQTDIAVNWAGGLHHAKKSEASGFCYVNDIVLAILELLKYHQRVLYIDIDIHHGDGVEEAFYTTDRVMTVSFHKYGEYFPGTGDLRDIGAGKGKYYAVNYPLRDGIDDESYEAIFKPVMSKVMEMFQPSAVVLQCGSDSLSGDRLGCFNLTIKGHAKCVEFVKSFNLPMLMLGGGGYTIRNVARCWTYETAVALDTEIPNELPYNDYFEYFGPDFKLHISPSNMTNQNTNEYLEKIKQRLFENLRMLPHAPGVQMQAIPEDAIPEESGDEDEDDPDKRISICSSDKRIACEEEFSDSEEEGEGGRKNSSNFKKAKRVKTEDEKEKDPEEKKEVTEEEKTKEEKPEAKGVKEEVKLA

Biological target: T1, ATF3 (human (endogenous in HEC-1A / HEC-1B)) (UniProt P18847)
T1 sequence: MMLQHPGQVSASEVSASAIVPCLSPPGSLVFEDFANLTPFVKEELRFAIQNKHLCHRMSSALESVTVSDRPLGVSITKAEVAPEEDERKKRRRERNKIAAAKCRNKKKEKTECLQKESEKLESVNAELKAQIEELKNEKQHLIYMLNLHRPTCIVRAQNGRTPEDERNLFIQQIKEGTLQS
Test: co-IP; precipitation with anti-ATF3 antibody, immunoblotting with HDAC1 antibodies; EC cells

HDAC1 (from UniProt Q13547 1-482)
binding: binds
